Test results reported in patent US20080241130A1.
These are yes or no findings as the source states them, for the method shown. Some entries that bind do so weakly or less than the wild type.

The chains behind the UniProt entries cited, without tags or fusion partners. Where a name states a change or a piece, a line headed by the entry shows the natural chain unless it says otherwise.
UniProt Q16552: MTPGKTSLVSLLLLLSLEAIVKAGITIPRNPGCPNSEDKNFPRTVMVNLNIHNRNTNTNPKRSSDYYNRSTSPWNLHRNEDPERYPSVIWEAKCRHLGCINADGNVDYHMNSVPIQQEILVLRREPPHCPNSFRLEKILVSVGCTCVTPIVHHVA
UniProt Q96PD4: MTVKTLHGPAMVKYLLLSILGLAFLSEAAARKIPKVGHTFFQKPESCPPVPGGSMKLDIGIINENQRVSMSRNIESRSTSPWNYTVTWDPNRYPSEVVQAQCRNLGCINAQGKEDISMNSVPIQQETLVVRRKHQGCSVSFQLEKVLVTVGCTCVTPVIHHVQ

How the values were obtained:
[1] = target: human IL-17R.Fc (human); test: SPR (Biacore 2000), receptor.Fc amine-coupled, cytokine injected
[2] = target: human IL-17RC.Fc (human); test: as above
[3] = target: human IL-17RC.Fc (human); test: indirect sandwich ELISA; receptor.Fc captured on goat anti-human IgG-Fc, biotinylated cytokine titrated
[4] = target: human IL-17R.Fc (human); test: indirect sandwich ELISA: IL-17R.Fc captured on goat anti-human IgG-Fc, biotinylated cytokine titrated, Poly-HRP streptavidin
[5] = target: human IL-17RC.Fc (human); test: indirect sandwich ELISA: IL-17RC.Fc captured on goat anti-human IgG-Fc, biotinylated cytokine titrated, Poly-HRP streptavidin

| binding [1] | binding [2] | binding [3] | binding [4] | binding [5] | Substance |
| --- | --- | --- | --- | --- | --- |
| binds | binds | binds | binds | binds | human IL-17A (from UniProt Q16552 24-155) (ligand) |
| binds | binds | binds | binds | binds | human IL-17F/IL-17A heterodimer (from UniProt Q96PD4 31-163; Q16552 24-155) (ligand) |
